In this experiment the target is NbZAR1 (ZAR1 from Nicotiana benthamiana), C-terminally 3xFLAG- or 4xMyc-tagged (Nicotiana benthamiana). Nature of the experiment: co-IP; C-terminally 3xFLAG-tagged bait co-expressed with C-terminally 4xMyc-tagged prey in N. benthamiana leaves; FLAG IP with anti-FLAG agarose beads, 90 min at 4°C, GTEN buffer (10% glycerol, 50 mM Tris-HCl pH 7.5, 5 mM MgCl2, 50 mM NaCl) with 10 mM DTT and 0.2% IGEPAL; eluted with 3xFLAG peptide; anti-Myc and anti-FLAG immunoblot. Background: Immunoblotting shows a protein as a band on a membrane.

For one molecule, binding results are on record in article PMC11524475.

These are yes or no findings as the source states them, for the method shown. In cells and extracts the contact can be indirect. Sequences can lack the tags named with a protein.

B1: NbZAR1 (ZAR1 from Nicotiana benthamiana), C-terminally 3xFLAG- or 4xMyc-tagged (protein, UniProt A0A385HBS4 1-845)
chain: MVDAVVTVFLEKLLHVLTEESRFLTKYRQQFEKLKNELLFMQSFLKDAERLKRKNNTLKGVMSCLRDLIFEAEEILEDCQNQSADSDRATTCFHPKRLSLRHQTGKCLAKINDRISEIKQNISTYLGVPLLEEGSMEAHNNLMSRWTSSLYDHTQVVGLEGDTEKIKDWLFEARDGLLTIAFVGMGGLGKTTLAQKVFNDKRVEDHLERRIWVSVSQTFTEEQVMRSILRSLGDACVGDDQCELLRKINQYLLGKRFLIVMDDVWSWDNAWWQKIYTGLPKGNGSTVIVTTRNELVARKMGVTEARIHWPKFLNEHYSWLLFRKIAFAGSAGECHFPELEDVGKEIVEKCKGLPLAIKAVGGVMLCKPSYYHEWRRISNHFRDELKENDDSVMASLQLSYDELPPYLKSCFLCFSLFPEDCVIPKDQLIRWWIGEGFIPLRSGRLSTEVGEDCFSQLSNRCLIEVVDKAYNGVIHTCKMHDMVRDLVIKLAEDDAFFTPADATCRHLGIKSEMNWKQLLSNQKLRALLTTTKSGEVNKIHSDIAKKLCKSRHLQVLDLSKSIFDVPLSSLLEGIGSAKQLTYLSLSNTHPMIGVPASISKLEKLQILDFSYCQNMKMLPSCVLTFEELAVLDVNNCGSLEYLPKGLSRLSNLQVLLGFKPAKLSQPGGCRIAELRSLTRLRTLSLRLTENEEIGDDEGNALVDLQELQFLTISCFGSQDNGLATKLGRLYPPRQLHELILKFYPSKTSPEWLNPNLSPMLRYLSIISGDITQMHENFWGDGSTAWKIEGLMLESLSDLRLEWSAMHQVMPSLRILKVSWCPELESFPIEDAGFRGGLWKKEEHRN
For the molecule B1, the binding result was “no binding”.
